Test results from paper PMC4110944, “Probing SH2-domains using Inhibitor Affinity Purification (IAP)” (Proteome Science, 2014).

The chains behind the UniProt entries cited, without tags or fusion partners.
UniProt O00459: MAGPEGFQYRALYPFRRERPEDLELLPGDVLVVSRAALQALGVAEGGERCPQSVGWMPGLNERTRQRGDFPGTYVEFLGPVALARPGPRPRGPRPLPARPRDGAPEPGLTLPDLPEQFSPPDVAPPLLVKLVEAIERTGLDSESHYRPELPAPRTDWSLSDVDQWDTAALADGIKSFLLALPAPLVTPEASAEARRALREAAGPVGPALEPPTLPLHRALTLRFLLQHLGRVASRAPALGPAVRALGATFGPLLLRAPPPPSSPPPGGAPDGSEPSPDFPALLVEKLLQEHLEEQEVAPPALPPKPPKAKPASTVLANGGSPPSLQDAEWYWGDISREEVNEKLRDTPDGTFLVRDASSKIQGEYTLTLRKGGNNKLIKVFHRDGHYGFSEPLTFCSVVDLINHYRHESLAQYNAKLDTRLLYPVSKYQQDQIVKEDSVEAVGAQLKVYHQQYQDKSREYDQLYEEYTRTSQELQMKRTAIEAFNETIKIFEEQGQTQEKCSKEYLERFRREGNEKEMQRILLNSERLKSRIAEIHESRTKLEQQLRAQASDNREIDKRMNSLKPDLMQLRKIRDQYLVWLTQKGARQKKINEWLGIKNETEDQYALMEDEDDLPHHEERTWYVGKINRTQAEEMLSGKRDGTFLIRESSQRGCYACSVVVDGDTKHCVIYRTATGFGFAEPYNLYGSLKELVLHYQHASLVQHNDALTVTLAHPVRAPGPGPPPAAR
UniProt P42338: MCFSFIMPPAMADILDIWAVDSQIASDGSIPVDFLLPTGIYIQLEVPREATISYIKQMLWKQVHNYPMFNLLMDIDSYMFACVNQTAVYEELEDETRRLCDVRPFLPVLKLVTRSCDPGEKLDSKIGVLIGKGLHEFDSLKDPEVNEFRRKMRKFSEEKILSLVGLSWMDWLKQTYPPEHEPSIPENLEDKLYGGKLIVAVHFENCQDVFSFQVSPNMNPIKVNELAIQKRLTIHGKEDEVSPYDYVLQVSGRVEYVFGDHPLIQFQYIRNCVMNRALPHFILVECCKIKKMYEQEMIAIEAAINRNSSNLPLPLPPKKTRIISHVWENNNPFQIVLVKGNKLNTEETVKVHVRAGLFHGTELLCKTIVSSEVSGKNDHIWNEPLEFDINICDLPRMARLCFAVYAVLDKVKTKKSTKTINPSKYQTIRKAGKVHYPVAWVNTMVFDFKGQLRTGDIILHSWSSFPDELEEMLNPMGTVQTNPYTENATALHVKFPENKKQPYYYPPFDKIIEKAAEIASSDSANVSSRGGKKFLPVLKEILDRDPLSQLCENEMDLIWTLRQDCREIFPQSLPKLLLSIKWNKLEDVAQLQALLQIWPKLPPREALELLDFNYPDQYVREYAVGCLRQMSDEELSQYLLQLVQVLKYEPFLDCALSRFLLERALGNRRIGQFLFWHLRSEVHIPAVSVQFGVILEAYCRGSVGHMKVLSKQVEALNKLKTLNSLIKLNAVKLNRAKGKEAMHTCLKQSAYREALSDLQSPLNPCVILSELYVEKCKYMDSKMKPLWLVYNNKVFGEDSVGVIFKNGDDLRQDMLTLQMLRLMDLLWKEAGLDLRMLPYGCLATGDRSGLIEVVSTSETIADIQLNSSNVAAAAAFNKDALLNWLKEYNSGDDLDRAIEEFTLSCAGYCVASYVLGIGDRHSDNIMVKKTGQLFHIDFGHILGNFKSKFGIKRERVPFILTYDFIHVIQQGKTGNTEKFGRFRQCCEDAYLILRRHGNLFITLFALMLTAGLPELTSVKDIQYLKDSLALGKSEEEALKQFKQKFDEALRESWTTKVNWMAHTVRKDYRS

Molecular target: Phosphoinositide 3-kinase regulatory subunit 2 (p85β) (human (endogenous in Colo205)) (UniProt O00459)
Experiment: affinity purification with mass spectrometry; probe 1 immobilised on NHS-sepharose beads; lysate of Colo205 cells treated with water (control) or 100 uM pervanadate; lysate with beads 30 min at 4°C; washes with CP buffer with 0.4% and 0.2% NP40 and 10% glycerol; LC-MS/MS, label-free quantification, triplicates

Phosphoinositide 3-kinase catalytic subunit B (p110β) (from UniProt P42338 1-1070) (enzyme)
binding: binds

These are yes or no findings as the source states them, for the method shown. Binding seen in cells or lysates may run through a third protein. Here binding means that the protein was enriched with, or labelled near, the bait; the list need not be complete.
